# Source: article PMC10024865 (Journal of medicinal chemistry, 2022)
# System: nucleolar volume in PC3M cells
# Experiment: Nucleolar disassembly assay
# Format: cell-based
# Conditions: 24 hr, concentration-response
smiles,measurement,value
"N=c1c2c(-c3ccccc3)c(-c3ccccc3)n(Cc3ccccc3)c2ncn1CCCO [Compound 5a, 3-(7-Benzyl-4-imino-5,6-diphenyl-4,7-dihydro-3H-pyrrolo[2,3-d]pyrimidin-3-yl)propan-1-ol]",effect on nucleolar volume,able to reduce nucleolar volume
